System: PFOB labeled islets in kidney of mice
Test: CT and 19F MRI of labeled islets transplanted under the renal capsule of mice
Format: in vivo, mouse

FC(F)(F)C(F)(F)C(F)(F)C(F)(F)C(F)(F)C(F)(F)C(F)(F)C(F)(F)Br [PFOB, perfluorooctylbromide]
detection of labeled islets by high resolution 19F MRI (after transplantation into the kidney of mice): clearly distinguishable from soft tissue | detection of labeled islets by CT imaging (in vivo after transplantation into the kidney of mice): identified in vivo
